Patent publication US5473051A, “Inhibition of Mac-1 receptor binding to fibrinogen using D30 homologs” (The Scripps Research Institute, priority 1991, dated 1995)
Not every detail of the peptide structures is certain; ends, links or a residue may be inferred. Some entries repeat one wording, which the source may state once for all of them. Ends that are not written are not given here.

Test system: neutrophils or monocytes
Assay: Cell attachment to polypeptide-coated wells
Format: cell-based, human
Description: To determine the Mac-1 receptor-binding site on the gamma chain of D30, the synthetic polypeptides prepared above were separately evaluated in cell attachment assays. For these assays, wells of 96-well microtiter plates (Linbro/Titertek; Flow Laboratories, VA) were coated with 60 μl of a 1 mg/ml solution of individual synthetic polypeptides prepared above. The wells containing the dissolved polypeptides were maintained for 16 hours at 4° C. The wells were then washed twice with PBS and blocked for 30 minutes with 0.1% BSA in PBS. After a final wash, 100 μl of DMEM containing 1% fetal bovine serum and 2×10^5 cells/ml of either neutrophils or monocytes prepared respectively in Example 2B and Example 8D were admixed into each well. The cells were maintained for 30 minutes at room temperature to allow the cells to attach to the polypeptide-coated wells. Non-adherant cells were removed from the wells by washing twice with PBS. […]
Adherent cells were quantitated by staining with 0.5% crystal violet. […] The optical density (O.D.) at 550 nm was determined with an ELISA reader (Biotek Instruments). Non-specific adherence was determined by plating cells on BSA-coated wells for the appropriate period of time. Specific adhesion to a given polypeptide substrate was calculated by subtracting the O.D. obtained with cells plated on BSA from that observed for cells plated on individual polypeptides. […]

## GQKRLDGSVDFKK [G7, GQKRLDGSVDFKK]
  promotion of cell attachment (in words): promoting cells attachment
